Results deposited as PubChem BioAssay AID743121 (NCATS, 2013)
The deposit covers about 26,000 reagents; shown is an unselected part. In the full data, 167 (0.63%) are marked active. 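Calls are per gene from RSA p-values that are not deposited; an individual active-marked siRNA can sensitise only weakly.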 Unmarked entries are inactive. The numbers tell different reagents against one gene apart. Further read-outs or replicates are left out here.

- Test: 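Genes whose silencing strengthens cell killing by camptothecin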 (primary screen)
- Cell system: MDA-MB-231 cells, a human breast cancer line
- Reagent: single siRNA against human genes, 20 nM siRNA (0.8 pmol per well)
- Timing: 120 h (drug added 48 h after transfection, read 72 h later)
- Treatment: camptothecin 20 nM (about EC30) for 72 h; vehicle 0.1% DMSO in parallel plates
- Measured: 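CellTiter-Glo ATP signal, scaled to control siRNA as percent viability; sensitisation given as log2 of untreated divided by camptothecin-treated viability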
- Reading the numbers: log2 vehicle/camptothecin viability: higher = stronger sensitisation to camptothecin; viability with camptothecin: higher = more viable cells
- Units: viability with camptothecin in % of control
- Rule for the call: 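Each gene scored by redundant siRNA activity (RSA) over its individual siRNA ratios; a gene is called active at p < 0.001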

{"target gene": "PLCD3 (phospholipase C delta 3)", "siRNA no.": 1, "log2 vehicle/camptothecin viability": -0.312, "viability with camptothecin": 51.4}
{"target gene": "PLCD3 (phospholipase C delta 3)", "siRNA no.": 2, "log2 vehicle/camptothecin viability": -0.287, "viability with camptothecin": 116}
{"target gene": "PLCD3 (phospholipase C delta 3)", "siRNA no.": 3, "log2 vehicle/camptothecin viability": -0.794, "viability with camptothecin": 33.6}
{"target gene": "ADAMTS10 (ADAM metallopeptidase with thrombospondin type 1 motif 10)", "siRNA no.": 1, "log2 vehicle/camptothecin viability": -0.488, "viability with camptothecin": 102}
{"target gene": "ADAMTS10 (ADAM metallopeptidase with thrombospondin type 1 motif 10)", "siRNA no.": 2, "log2 vehicle/camptothecin viability": -0.669, "viability with camptothecin": 88}
{"target gene": "ADAMTS10 (ADAM metallopeptidase with thrombospondin type 1 motif 10)", "siRNA no.": 3, "log2 vehicle/camptothecin viability": -0.19, "viability with camptothecin": 71.8}
{"target gene": "ADAMTS10 (ADAM metallopeptidase with thrombospondin type 1 motif 10)", "siRNA no.": 4, "log2 vehicle/camptothecin viability": -0.186, "viability with camptothecin": 75.4}
{"target gene": "CXCL3 (C-X-C motif chemokine ligand 3)", "siRNA no.": 1, "log2 vehicle/camptothecin viability": -0.183, "viability with camptothecin": 110}
{"target gene": "CXCL3 (C-X-C motif chemokine ligand 3)", "siRNA no.": 2, "log2 vehicle/camptothecin viability": -0.0845, "viability with camptothecin": 97.9}
{"target gene": "CXCL3 (C-X-C motif chemokine ligand 3)", "siRNA no.": 3, "log2 vehicle/camptothecin viability": -0.0665, "viability with camptothecin": 118}
{"target gene": "CXCL3 (C-X-C motif chemokine ligand 3)", "siRNA no.": 4, "log2 vehicle/camptothecin viability": -0.187, "viability with camptothecin": 45.6}
{"target gene": "ACTN1 (actinin alpha 1)", "siRNA no.": 1, "log2 vehicle/camptothecin viability": 0.24, "viability with camptothecin": 48.2}
{"target gene": "ACTN1 (actinin alpha 1)", "siRNA no.": 2, "log2 vehicle/camptothecin viability": -0.0687, "viability with camptothecin": 84.1}
{"target gene": "ACTN1 (actinin alpha 1)", "siRNA no.": 3, "log2 vehicle/camptothecin viability": 0.184, "viability with camptothecin": 31.4}
{"target gene": "ACTN1 (actinin alpha 1)", "siRNA no.": 4, "log2 vehicle/camptothecin viability": 1.01, "viability with camptothecin": 4.11}
{"target gene": "RSPRY1 (ring finger and SPRY domain containing 1)", "siRNA no.": 1, "log2 vehicle/camptothecin viability": -0.0917, "viability with camptothecin": 112}
{"target gene": "RSPRY1 (ring finger and SPRY domain containing 1)", "siRNA no.": 2, "log2 vehicle/camptothecin viability": -0.077, "viability with camptothecin": 60.6}
{"target gene": "RSPRY1 (ring finger and SPRY domain containing 1)", "siRNA no.": 3, "log2 vehicle/camptothecin viability": 0.0353, "viability with camptothecin": 97.5}
{"target gene": "PYGB (glycogen phosphorylase B)", "siRNA no.": 1, "log2 vehicle/camptothecin viability": -0.472, "viability with camptothecin": 64.3}
{"target gene": "PYGB (glycogen phosphorylase B)", "siRNA no.": 2, "log2 vehicle/camptothecin viability": -0.443, "viability with camptothecin": 77.3}
{"target gene": "PYGB (glycogen phosphorylase B)", "siRNA no.": 3, "log2 vehicle/camptothecin viability": -0.127, "viability with camptothecin": 72.1}
{"target gene": "PYGB (glycogen phosphorylase B)", "siRNA no.": 4, "log2 vehicle/camptothecin viability": -0.247, "viability with camptothecin": 93.7}
{"target gene": "PGPEP1L (pyroglutamyl-peptidase I like)", "siRNA no.": 1, "log2 vehicle/camptothecin viability": -0.0718, "viability with camptothecin": 88}
{"target gene": "PGPEP1L (pyroglutamyl-peptidase I like)", "siRNA no.": 2, "log2 vehicle/camptothecin viability": -0.505, "viability with camptothecin": 72.9}
{"target gene": "PGPEP1L (pyroglutamyl-peptidase I like)", "siRNA no.": 3, "log2 vehicle/camptothecin viability": -0.197, "viability with camptothecin": 74.7}
{"target gene": "PGPEP1L (pyroglutamyl-peptidase I like)", "siRNA no.": 4, "log2 vehicle/camptothecin viability": 0.129, "viability with camptothecin": 40.6}

3 neighbouring entries from above:
{"target gene": "PLCD3 (phospholipase C delta 3)", "siRNA no.": 3, "log2 vehicle/camptothecin viability": -0.794, "viability with camptothecin": 33.6}
{"target gene": "ADAMTS10 (ADAM metallopeptidase with thrombospondin type 1 motif 10)", "siRNA no.": 1, "log2 vehicle/camptothecin viability": -0.488, "viability with camptothecin": 102}
{"target gene": "ADAMTS10 (ADAM metallopeptidase with thrombospondin type 1 motif 10)", "siRNA no.": 2, "log2 vehicle/camptothecin viability": -0.669, "viability with camptothecin": 88}
